Source: publication PMC5584982
No constants are given. Whether binding was seen depends on the method and setting. Binding seen in cells or lysates may run through a third protein. A result given as binding can be weak or reduced; the word gives no strength.

Sequences of proteins named here, by UniProt entry; tags and fusion partners are left off. A change or cut given only in a name is not applied to a line headed by its entry.
UniProt Q57Z59: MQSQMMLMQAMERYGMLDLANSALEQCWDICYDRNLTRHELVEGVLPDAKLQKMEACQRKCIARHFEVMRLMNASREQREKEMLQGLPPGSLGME
UniProt Q585K7: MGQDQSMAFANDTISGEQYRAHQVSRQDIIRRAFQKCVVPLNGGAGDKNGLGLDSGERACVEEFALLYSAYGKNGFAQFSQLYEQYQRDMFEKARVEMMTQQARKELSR
UniProt Q389I9: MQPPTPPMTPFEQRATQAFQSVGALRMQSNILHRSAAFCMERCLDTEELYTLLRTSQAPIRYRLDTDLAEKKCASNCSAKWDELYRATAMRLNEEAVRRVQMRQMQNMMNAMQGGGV

How the values were obtained:
TbTim11-HA (T. brucei) = TbTim11-HA (T. brucei) (UniProt Q57Z59); assay: co-IP; digitonin-extracted crude mitochondrial fraction solubilized in 1% digitonin, 20 mM Tris-HCl pH 7.4, 0.1 mM EDTA, 100 mM NaCl, 10% glycerol; anti-c-myc or anti-HA resin, 2 h at 4°C; eluate analysed by western blot
TbTim12-myc (T. brucei) [1] = target: TbTim12-myc (T. brucei) (UniProt Q585K7); assay: as above
TbTim13-myc (T. brucei) [2] = target: TbTim13-myc (T. brucei) (UniProt Q389I9); assay: as above
TbTim12-myc (T. brucei) [3] = target: TbTim12-myc (T. brucei) (UniProt Q585K7); assay: co-IP; soluble fraction with IMS proteins (supernatant after 0.2% digitonin treatment of crude mitochondria); anti-c-myc resin, 2 h at 4°C, 20 mM Tris-HCl pH 7.4, 100 mM NaCl; eluate analysed by western blot
TbTim13-myc (T. brucei) [4] = target: TbTim13-myc (T. brucei) (UniProt Q389I9); assay: as above

binding (TbTim11-HA (T. brucei)) | binding (TbTim12-myc (T. brucei) [1]) | binding (TbTim13-myc (T. brucei) [2]) | binding (TbTim12-myc (T. brucei) [3]) | binding (TbTim13-myc (T. brucei) [4]) | Substance
binds |  |  |  |  | TbTim12-myc (from UniProt Q585K7)
 | binds | binds | binds | binds | TbTim11-HA (from UniProt Q57Z59)
 |  | binds |  | binds | TbTim12 (endogenous) (from UniProt Q585K7)
